# Laboratory results from PubChem BioAssay AID504444 (National Center for Advancing Translational Sciences (NCATS), 2011).
# The campaign covered roughly 360,000 compounds. About 7,500 (2.1%) were called active. Inconclusive results, whose numbers are uncertain, are shown with a selection of clear calls. The call rests on the fitted dose curve; in most records, active means well fitted inhibition curve with a large enough effect; inconclusive means small, poorly fitted or top-dose-only effect, or effect the other way; inactive means flat fitted curve, though single readings scatter. Potencies beside an inconclusive call are fits to weak or partial responses and may not hold up.
# Experiment: Nrf2 qHTS screen for inhibitors; further: nearly all actives have a fitted effect of over 60% in size
# Details: A549 ARE-Fluc reporter, luciferase luminescence, 18-24 h; activity change, negative = inhibition: at 46 µM (top of the series)
# How it was run: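 Concentration-response testing used A549 ARE_Fluc cells at 5000 cells/well. Following an 18-24 h compound incubation, viability was read by fluorescence (Ex 405/Em 525) and luciferase output by luminescence.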
# On the % scale 0 is the no-effect control and ±100 the full control effect; potency means the concentration at half of the fitted maximal effect.
SMILES,Potency,"activity change, negative = inhibition"
Cc1sc2ncnc(OCC(=O)c3ccc(S(=O)(=O)N4CCCC4)cc3)c2c1C,"inconclusive: 8.2 µM [falling, partial curve, poor fit]",–
COc1cc(F)ccc1S(=O)(=O)N1CCN(Cc2ccccc2)CC1,–,inactive: -14.2%
CC(C)N(C(=O)COC(=O)c1ccccc1C(=O)N1CCN(c2ccc(F)cc2)CC1)C(C)C,–,inactive: -8.91%
CCn1nnnc1SCC(=O)Nc1nnc(C(C)C)s1,"inconclusive: 0.0517 µM [activator, full curve, poor fit]",–
C[C@@]12C(=O)N(c3ccc(Br)cc3)C(=O)N1[C@@H]1c3ccccc3OC[C@@H]1[C@H]2c1ccccc1,–,inactive: -7.14%
c1ccc(-c2nc3nonc3c3nc4ccccc4n23)cc1,"inconclusive: 6.51 µM [falling, partial curve]",–
COc1ccc(-c2cc3nc(C)c(CCC(=O)NC(C)CCc4ccco4)c(C)n3n2)c(OC)c1 (configuration not stated),"inconclusive: 16.4 µM [falling, partial curve, poor fit]",–
Cn1c(=O)n(C)c2cc(NC(=O)c3ccc(F)cc3)c(Br)cc21,"inconclusive: 9.2 µM [falling, partial curve, poor fit]",–
Cc1csc(CN(C)C(=O)CC2C(=O)NCCN2Cc2ccc(Cl)c(F)c2)n1 (configuration not stated),–,inactive: 10.5%
O=C(O)CNC(=O)c1ccccc1NC(=O)c1ccco1,–,inactive: 19.3%
C=C(C)CSc1nc2c(c(=O)[nH]c(=O)n2C)n1Cc1ccccc1,active: 5.8 µM,–
O=c1c2ccccc2nnn1Cc1ccccc1Cl,–,inactive: -4.95%
CC(=NNC(=O)c1ccncc1)c1ccc(Cl)c(Cl)c1,–,inactive: -1.76%
C/C(=N\NC(=O)C1CCCN(S(=O)(=O)c2ccccc2)C1)c1ccncc1 (configuration not stated),–,inactive: 5.31%
Cc1ccc2onc(CC(=O)N3CCN(c4cccc(C)c4C)CC3)c2c1,"inconclusive: 29.1 µM [activator, single point]",–
Cc1ccc(S(=O)(=O)Nc2c(C)cc([N+](=O)[O-])cc2C)cc1,"inconclusive: 25.9 µM [falling, partial curve, poor fit]",–
CCOC(=O)N1CCN(C(=O)CCNS(=O)(=O)c2ccc(C)c(C)c2)CC1,–,inactive: 8.28%
CSCC[C@H](NC(=O)c1cccs1)c1nnc2ccccn12,"inconclusive: 18.4 µM [falling, single point]",–
COc1ccc(-c2noc(CSc3nnc(-c4ccncc4)n3-c3ccc(C)c(C)c3)n2)cc1,"inconclusive: 3.26 µM [falling, partial curve, poor fit]",–
Clc1ccc(Nc2nc(-c3ccccc3)c3cc(Cl)ccc3n2)cc1,–,inactive: 8.91%
CC1=C(C(=O)OCc2ccccc2)C(/C=C/c2ccccc2)NC(=S)N1 (configuration not stated),"inconclusive: 29.1 µM [falling, single point]",–

SMILES,Potency,"activity change, negative = inhibition"
CC(=O)C1=C(C)OC(N)=C(C#N)C1c1cc2cc(C)c(C)cc2nc1Cl (configuration not stated),"inconclusive: 0.0065 µM [falling, full curve, poor fit]",–
Cc1ccc2cccc(OCC(=O)N3CC(C)CC(C)C3)c2n1 (configuration not stated),–,inactive: -10%
Cc1cc(N)n2nc(-c3ccc(C(C)(C)C)cc3)cc2n1,"inconclusive: 0.517 µM [activator, full curve]",–
CNC(=O)c1ccc(NC(=O)COc2ccc(-c3nn(C)c(=O)c4ccccc34)cc2)cc1,"inconclusive: 14.6 µM [falling, single point]",–
CC[C@]12c3[nH]c4cc(-c5ccco5)ccc4c3CCN1C(=O)[C@@H](CC(=O)NCC13CC4CC(CC(C4)C1)C3)C[C@@H]2C(=O)N1CCN(C(=O)c2ccco2)CC1,"inconclusive: 29.1 µM [falling, single point]",–
C[C@@H](NC(=O)c1nc[nH]c1C(=O)OCc1ccccc1)c1ccccc1,"inconclusive: 18.4 µM [falling, partial curve, poor fit]",–
Cc1ccc(OCC(=O)N(Cc2sccc2C)C2CCS(=O)(=O)C2)cc1 (configuration not stated),–,inactive: 12%
COc1ccc(-c2csc(C3=C(O)CN(Cc4ccc(S(N)(=O)=O)cc4)C3=N)n2)cc1OC,"inconclusive: 2.91 µM [activator, single point]",–
COc1ccc(/C=C/C(=O)c2ccc(O)cc2)cc1CN1CCOCC1,–,inactive: -12%
COc1cc2nc(SCC(=O)Nc3cccc(C)c3)n3nc(-c4ccccc4)nc3c2cc1OC,"inconclusive: 29.1 µM [activator, single point]",–
CN1CC(=O)NC1=NC(=O)c1ccc(Cl)c(S(=O)(=O)N2CCCCCC2)c1,"inconclusive: 6.51 µM [falling, single point]",–
COC(=O)C1=C(C)Nc2[nH]c(=S)[nH]c(=O)c2C1c1ccc(OC)cc1 (configuration not stated),–,inactive: -11.8%
CCCOc1ccc(NC(=O)CC2C(=O)N(Cc3ccccc3)C(=S)N2Cc2cccs2)cc1 (configuration not stated),"inconclusive: 29.1 µM [falling, single point]",–
C=CCC[C@H](Cc1ccc(F)cc1)C(=O)OC[C@@H](Cc1c[nH]c2ccccc12)NC(=O)[C@H](CC=C)CC(=O)N[C@H](CO)Cc1ccccc1,"inconclusive: 25.9 µM [falling, single point]",–
COc1ccc(C2=Nn3c(nnc3-c3ccccc3Cl)SC2)cc1OC1CCOC1 (configuration not stated),–,inactive: 5.74%
CC(C)Cn1c(-c2cc(Br)ccc2F)nc2c1c(=O)[nH]c(=O)n2CC(C)C,"inconclusive: 29.1 µM [activator, single point]",–
COc1ccc(-c2cc(C(F)F)n3ncc(C(=O)Nc4c(C)n(C)n(-c5ccccc5)c4=O)c3n2)cc1,"inconclusive: 1.64 µM [activator, full curve, poor fit]",–
O=C(NCCc1cccs1)C1CC(c2ccc([N+](=O)[O-])cc2)=NO1 (configuration not stated),"inconclusive: 20.6 µM [activator, partial curve, poor fit]",–
CCOc1ccc2oc(C(=O)Nc3nccs3)c(C)c2c1,"inconclusive: 0.517 µM [activator, full curve, poor fit]",–
COc1ccc(-c2nc(Cn3c(SCc4ccc(F)cc4)nc4cccnc43)c(C)o2)cc1,active: 18.4 µM,–
COc1ccc(C(=O)NC(C)c2ccc(-n3ccnc3)cc2)cc1S(=O)(=O)N1CCOCC1 (configuration not stated),"inconclusive: 0.58 µM [falling, partial curve, poor fit]",–

# A draw from above in order of SMILES length, high to low.
SMILES,Potency,"activity change, negative = inhibition"
COc1ccc(-c2cc3nc(C)c(CCC(=O)NC(C)CCc4ccco4)c(C)n3n2)c(OC)c1 (configuration not stated),"inconclusive: 16.4 µM [falling, partial curve, poor fit]",–
COc1ccc(-c2noc(CSc3nnc(-c4ccncc4)n3-c3ccc(C)c(C)c3)n2)cc1,"inconclusive: 3.26 µM [falling, partial curve, poor fit]",–
COc1cc2nc(SCC(=O)Nc3cccc(C)c3)n3nc(-c4ccccc4)nc3c2cc1OC,"inconclusive: 29.1 µM [activator, single point]",–
CN1CC(=O)NC1=NC(=O)c1ccc(Cl)c(S(=O)(=O)N2CCCCCC2)c1,"inconclusive: 6.51 µM [falling, single point]",–
Cc1sc2ncnc(OCC(=O)c3ccc(S(=O)(=O)N4CCCC4)cc3)c2c1C,"inconclusive: 8.2 µM [falling, partial curve, poor fit]",–
CC(=O)C1=C(C)OC(N)=C(C#N)C1c1cc2cc(C)c(C)cc2nc1Cl (configuration not stated),"inconclusive: 0.0065 µM [falling, full curve, poor fit]",–
Cc1ccc(S(=O)(=O)Nc2c(C)cc([N+](=O)[O-])cc2C)cc1,"inconclusive: 25.9 µM [falling, partial curve, poor fit]",–
CC1=C(C(=O)OCc2ccccc2)C(/C=C/c2ccccc2)NC(=S)N1 (configuration not stated),"inconclusive: 29.1 µM [falling, single point]",–
Cc1ccc(OCC(=O)N(Cc2sccc2C)C2CCS(=O)(=O)C2)cc1 (configuration not stated),–,inactive: 12%
Cc1ccc2onc(CC(=O)N3CCN(c4cccc(C)c4C)CC3)c2c1,"inconclusive: 29.1 µM [activator, single point]",–
COc1ccc(/C=C/C(=O)c2ccc(O)cc2)cc1CN1CCOCC1,–,inactive: -12%
Cc1ccc2cccc(OCC(=O)N3CC(C)CC(C)C3)c2n1 (configuration not stated),–,inactive: -10%
c1ccc(-c2nc3nonc3c3nc4ccccc4n23)cc1,"inconclusive: 6.51 µM [falling, partial curve]",–
